Experimental data reported in PubChem BioAssay AID1671190 (National Center for Advancing Translational Sciences (NCATS), 2021).
Out of some 580,000 compounds screened, about 6,100 (1.1%) were called active. The inconclusive results got no clear call from the source; some entries with a clear call stand among them for comparison. The call rests on the fitted dose curve; in most records, active means well fitted inhibition curve with a large enough effect; inconclusive means small, poorly fitted or top-dose-only effect, or another doubt; inactive means no such curve, though single readings can be large or run the other way. Potencies beside an inconclusive call are fits to weak or partial responses and may not hold up.

Chains of the proteins cited; added tags and fusions are not shown.
UniProt P18054, whole entry, looked up: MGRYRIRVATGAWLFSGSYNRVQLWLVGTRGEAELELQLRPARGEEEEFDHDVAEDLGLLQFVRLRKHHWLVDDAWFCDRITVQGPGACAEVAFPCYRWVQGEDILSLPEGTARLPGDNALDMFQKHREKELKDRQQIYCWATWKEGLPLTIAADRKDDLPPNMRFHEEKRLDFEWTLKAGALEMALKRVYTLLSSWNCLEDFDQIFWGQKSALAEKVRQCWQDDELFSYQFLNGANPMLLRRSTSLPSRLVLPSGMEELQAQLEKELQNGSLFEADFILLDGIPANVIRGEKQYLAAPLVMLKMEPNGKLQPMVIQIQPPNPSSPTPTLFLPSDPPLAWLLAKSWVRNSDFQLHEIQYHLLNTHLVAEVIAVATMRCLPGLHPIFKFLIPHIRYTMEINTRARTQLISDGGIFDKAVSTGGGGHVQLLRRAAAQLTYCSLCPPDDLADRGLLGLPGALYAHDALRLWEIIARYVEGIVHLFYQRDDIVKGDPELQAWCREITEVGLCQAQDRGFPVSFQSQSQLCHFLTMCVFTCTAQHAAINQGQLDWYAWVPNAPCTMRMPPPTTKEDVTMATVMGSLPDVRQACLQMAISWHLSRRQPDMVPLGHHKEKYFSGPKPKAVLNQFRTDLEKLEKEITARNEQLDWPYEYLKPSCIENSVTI

The molecules below were run against Polyunsaturated fatty acid lipoxygenase ALOX12 (Homo sapiens) (UniProt P18054) (assay: Primary qHTS assay for inhibitors of human arachidonate 12S-lipoxygenase (ALOX12): Round 2). Settings: purified 12hLO, xylenol orange hydroperoxide absorbance; activity change, negative = inhibition: at 108 µM (top of the series) unless noted.
Outline: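 Hydroperoxide product was detected by ferrous iron/xylenol orange as the 573 to 405 nm absorbance ratio. Arachidonic acid at 40 uM (final) was turned over for 30 min at room temperature by 150 nM human 12hLO, pH 7.0 Hepes buffer, after 15 min compound preincubation.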
On the % scale 0 is the no-effect control and ±100 the full control effect; potency means the concentration at half of the fitted maximal effect.

Row | Compound | Potency | activity change, negative = inhibition
1 | NC(=O)Cc1ccc(C(=O)CSc2ccc3c(c2)OCCCO3)s1 | inconclusive: 31.6 µM [inhibitor, partial curve, poor fit] | –
2 | NC(=O)c1ncn([C@@H]2O[C@H](CN=C3NS(=O)(=O)c4ccccc43)[C@@H](O)[C@H]2O)n1 | inconclusive: 112 µM [inhibitor, single point] | –
3 | COCCNC(=O)C1(C)CCN(C(=O)c2cccnc2Oc2ccccc2)C1 (stereo unspecified) | inactive | –
4 | CN(C(=O)c1cc2cccc([N+](=O)[O-])c2[nH]1)C1CCCCCC1 | inconclusive: 39.8 µM [inhibitor, partial curve, poor fit] | –
5 | CC(C)NC(=O)N(C)C[C@H]1Oc2c(NS(=O)(=O)c3ccc(F)cc3)cccc2C(=O)N([C@H](C)CO)C[C@@H]1C | inconclusive: 22.4 µM [inhibitor, single point] | –
6 | C=CCn1c(C2CC2)n[nH]c1=S | inconclusive: 112 µM [inhibitor, single point] | –
7 | COCCSc1ccccc1C(=O)NCCc1ccccc1 | inconclusive: 50.1 µM [inhibitor, partial curve, poor fit] | –
8 | CCOC(=O)c1[nH]c(C)c(/C(O)=C2\C(=O)C(=O)N(CCN(C)C)C2c2cccc(F)c2)c1C (stereo unspecified) | inconclusive: 5.01 µM [inhibitor, full curve] | –
9 | Fc1ccc(CCNC(=S)NCc2ccccc2)cc1 | inconclusive: 100 µM [inhibitor, partial curve, poor fit] | –
10 | COc1ccc(NC(=O)CSc2ccc3c(c2)OCCO3)cc1 | inactive | –
11 | O=C(CCc1cc(Cl)no1)Nc1ccc2oc(-c3ccc(F)cc3)cc(=O)c2c1 | inconclusive: 50.1 µM [inhibitor, partial curve, poor fit] | –
12 | COc1cccc(-n2c(SCC(=O)Nc3nccs3)nnc2-c2ccoc2C)c1 | inconclusive: 2 µM [inhibitor, partial curve, poor fit] | –
13 | CCCOc1ccc(/C=C/C(=O)NC2CCCCC2)cc1OC | inactive | –
14 | CCOc1ccccc1C(C(=O)O)N1CCN(Cc2csc(C)n2)CC1 (stereo unspecified) | inactive | –
15 | Cc1ccc(NC(=O)Cn2c(=O)oc3cc(S(=O)(=O)N4CCCC4)ccc32)cc1F | inactive | –
16 | O=C(COC(=O)/C=C/c1ccco1)Nc1ncc(C(F)(F)F)cc1Cl | inconclusive: 50.1 µM [inhibitor, partial curve, poor fit] | –
17 | O=C(CCNC(=O)C1CCN(S(=O)(=O)c2ccccc2)CC1)NCc1ccc(Cl)cc1Cl | inactive | –
18 | Cc1ccc(S(=O)(=O)Nc2cc(C)c(O)c(S(=O)(=O)c3ccc(C)cc3)c2)cc1 | inconclusive: 63.1 µM [inhibitor, partial curve, poor fit] | –
19 | CC(NCc1ccccc1Cl)C(=O)Nc1ccc(C(C)(C)C)cc1 (stereo unspecified) | inconclusive: 0.224 µM [inhibitor, full curve, poor fit] | –
20 | CC[C@@H]1C(c2ccccc2)=NN(c2ccccc2)[C@H]1C(=O)N1CCOC1=O | inconclusive: 112 µM [inhibitor, single point] | –
21 | COc1ccccc1N1CCN(CCCNC(=O)Cn2ncc3c([nH]c4ccccc43)c2=O)CC1 | inconclusive: 5.62 µM [inhibitor, partial curve, poor fit] | –
22 | CSc1ccc(S(=O)(=O)N2CCC(C(=O)N3CCc4ccccc4C3)CC2)cc1 | inactive | –

Row | Compound | Potency | activity change, negative = inhibition
23 | NC(=O)[C@H](Cc1cccs1)NC(=O)[C@@]1(O)C[C@@H](O)[C@H](O)[C@@H](NC(=O)c2ccc(F)c(Cl)c2)C1 | inactive | –
24 | Cc1ccc(C(=O)c2sc(Nc3ccccc3)c(C#N)c2N)cc1 | inconclusive: 50.1 µM [inhibitor, partial curve, poor fit] | –
25 | O=S(=O)(NC(c1ccccc1)C1CC1)c1cccs1 (stereo unspecified) | inconclusive: 100 µM [inhibitor, single point] | –
26 | COc1ccc(C(=O)Oc2ccccc2Cl)c(OC)c1 | inconclusive: 35.5 µM [inhibitor, single point] | –
27 | Cc1ccc(OCc2nc(C3CCCCN3C(=O)c3ccn[nH]3)no2)cc1 (stereo unspecified) | inactive | –
28 | CCN(CC)S(=O)(=O)c1ccc(NS(=O)(=O)c2ccccc2C#N)cc1 | inconclusive: 35.5 µM [inhibitor, partial curve, poor fit] | –
29 | CC(C)(C)c1cc(=O)[nH]c(SCc2ccccc2Cl)n1 | inconclusive: 12.6 µM [inhibitor, partial curve, poor fit] | –
30 | COc1ccc(CCNC(=O)Nc2cc(F)c(F)cc2Cl)cc1OC | inconclusive: 56.2 µM [inhibitor, partial curve, poor fit] | –
31 | CC(C)=CCc1c(O)cc(O)c2c1OC(c1ccc(O)cc1)CC2=O (stereo unspecified) | inconclusive: 112 µM [inhibitor, single point] | –
32 | CCc1ccc(CN2CCc3nc(Nc4ccc5c(c4)OCCO5)ncc3C2)cc1 | inconclusive: 56.2 µM [inhibitor, partial curve, poor fit] | –
33 | Cc1c(C2N3CC4(C)CN2CC(C)(C3)C4=O)c2ccccc2n1C (stereo unspecified) | inconclusive: 56.2 µM [inhibitor, partial curve, poor fit] | –
34 | CC(C)c1ccc(/C=N/NC(=O)c2ccc(-n3cnnn3)cc2)cc1 | inactive | –
35 | CCOC(=O)Cc1csc(NC(=O)CSc2cc(Cl)ccc2Cl)n1 | inconclusive: 141 µM [inhibitor, partial curve, poor fit] | –
36 | CCc1nc2c(OCc3ccc(OC(F)F)cc3)cccn2c1N(C)C(=O)c1ccco1 | inconclusive: 89.1 µM [inhibitor, single point] | –
37 | O=C(CSc1ncccc1C(=O)O)c1ccccc1F | inconclusive: 1.58 µM [inhibitor, full curve] | –
38 | Cc1cc(N2CCN(c3ccccn3)CC2)n2cc(-c3ccccc3)nc2n1 | inconclusive: 5.62 µM [inhibitor, full curve, poor fit] | –
39 | O=C(Nc1ccc(Cl)cc1C(F)(F)F)c1cc(I)ccc1Cl | inactive | –
40 | O=C(Nc1ncc2c(n1)-c1ccccc1OC2)c1cccc([N+](=O)[O-])c1 | inactive | –
41 | Cc1ccc(NC(=O)CSCC(=O)Nc2sccc2C#N)cc1 | inconclusive: 28.2 µM [inhibitor, single point] | –
42 | O=C(NCc1ccccc1)C1=C[C@@H](c2ccccc2)C[C@@H](OCCCCO)O1 | inconclusive: 89.1 µM [inhibitor, partial curve, poor fit] | –
43 | COc1cccc(O)c1CN1CCC(C(Cc2ccc(F)cc2)N(C)Cc2cn(C)nc2C)CC1 (stereo unspecified) | inactive | –
44 | CCN(C(=O)c1cn(C)c(=O)c2cc(OC)c(OC)cc12)c1cc(C)ccc1C | inconclusive: 100 µM [inhibitor, partial curve, poor fit] | –

Part of the list above in order of molar mass, descending:
Row | Compound | Potency | activity change, negative = inhibition
5 | CC(C)NC(=O)N(C)C[C@H]1Oc2c(NS(=O)(=O)c3ccc(F)cc3)cccc2C(=O)N([C@H](C)CO)C[C@@H]1C | inconclusive: 22.4 µM [inhibitor, single point] | –
19 | CC(NCc1ccccc1Cl)C(=O)Nc1ccc(C(C)(C)C)cc1 (stereo unspecified) | inconclusive: 0.224 µM [inhibitor, full curve, poor fit] | –
9 | Fc1ccc(CCNC(=S)NCc2ccccc2)cc1 | inconclusive: 100 µM [inhibitor, partial curve, poor fit] | –

(more compounds)

Row | Compound | Potency | activity change, negative = inhibition
45 | Cc1nc(-c2cccc(NC(=O)c3ccc(Br)o3)c2)cs1 | inactive | –
46 | CCCCOCCCNC(=O)C[C@@H]1C[C@@]2(C(=O)OCC)CCC=C2N(Cc2ccc3c(c2)OCO3)C1=O | inconclusive: 100 µM [inhibitor, single point] | –
47 | CCC(Sc1nnc(C)s1)C(=O)Nc1nccs1 (stereo unspecified) | inconclusive: 50.1 µM [inhibitor, partial curve, poor fit] | –
48 | CC(=O)N1CCC(C(=O)Nc2ccc(Cl)cc2)CC1 | inactive | –
49 | CCC(=O)/C=C1\Sc2ccccc2N1CC | inconclusive: 12.6 µM [inhibitor, full curve, poor fit] | –
50 | Brc1ccc(-c2cn3ccccc3n2)s1 | inconclusive: 20 µM [inhibitor, partial curve, poor fit] | –
51 | COc1cccc(Nc2ncc3nc(-c4ccccc4)c(=O)n(C)c3n2)c1 | inconclusive: 44.7 µM [inhibitor, partial curve, poor fit] | –
52 | CCCCCn1c(C)c2c(OCC)cccc(=O)c2c1C | inconclusive: 100 µM [inhibitor, single point] | –
53 | CCC(CC)C(=O)Nc1ccccc1C(=O)OCc1cc(=O)n2nc(C3CCCCC3)sc2n1 | inconclusive: 50.1 µM [inhibitor, partial curve, poor fit] | –
54 | OC(CNc1ccccc1)Cn1ccc2ccccc21 (stereo unspecified) | inconclusive: 0.891 µM [inhibitor, full curve, poor fit] | –
55 | Cc1ccc(NC(=O)c2sc3nc(N)c(C#N)cc3c2N)cc1 | inconclusive: 44.7 µM [inhibitor, partial curve, poor fit] | –
56 | CCOC(=O)C(C)(C)Sc1ncnc2nc[nH]c12 | inactive | –
57 | Cn1c(C(=O)N2CCN(C(=O)c3ccc(F)cc3)CC2)cc2ccccc21 | – | inconclusive: -35.8% [inhibitor]
58 | C=CCc1c(C)nc2ccc(C(=O)OCC)cc2c1Cl | inconclusive: 1.26 µM [inhibitor, full curve, poor fit] | –
59 | COC(=O)c1sc(-c2ccc(C(C)(C)C)cc2)cc1NC(=O)CCC(=O)O | inconclusive: 100 µM [inhibitor, partial curve, poor fit] | –
60 | CC1CCCC(C)N1C(=O)CSc1nnc(COc2ccccc2)n1-c1ccccc1 (stereo unspecified) | inactive | –
61 | CCC(C)N1CCN(C(=O)c2cccc(Cl)c2)CC1 (stereo unspecified) | inconclusive: 0.355 µM [inhibitor, full curve, poor fit] | –
62 | Cc1ccc(OCCCc2c(C)n[nH]c2C)cc1 | active: 6.31 µM | –
63 | CCCCOP(=O)(OCCCC)C(O)c1ccc(Br)cc1 (stereo unspecified) | inactive | –
64 | C=CCOc1cccc(C2C(C(=O)c3cc4ccccc4o3)=C(O)C(=O)N2c2cc(C)on2)c1 (stereo unspecified) | inconclusive: 44.7 µM [inhibitor, partial curve, poor fit] | –
65 | CCc1nc2c(c(-c3ccc(Cl)cc3)n1)CCN(C(=O)c1ccccc1)CC2 | inactive | –
66 | Cc1nnc(N/N=C\c2ccc(-c3cccc(C(=O)O)c3)o2)n1N | inconclusive: 5.62 µM [inhibitor, full curve, poor fit] | –
